According to the supplement of paper PMC10849652:
This is one part of the list.

Protein sequences, listed by entry. Tags and fused reporters are not part of them. Lines headed by an entry give the natural chain unless they say otherwise; changes in a name come on top.
UniProt Q9HBR0: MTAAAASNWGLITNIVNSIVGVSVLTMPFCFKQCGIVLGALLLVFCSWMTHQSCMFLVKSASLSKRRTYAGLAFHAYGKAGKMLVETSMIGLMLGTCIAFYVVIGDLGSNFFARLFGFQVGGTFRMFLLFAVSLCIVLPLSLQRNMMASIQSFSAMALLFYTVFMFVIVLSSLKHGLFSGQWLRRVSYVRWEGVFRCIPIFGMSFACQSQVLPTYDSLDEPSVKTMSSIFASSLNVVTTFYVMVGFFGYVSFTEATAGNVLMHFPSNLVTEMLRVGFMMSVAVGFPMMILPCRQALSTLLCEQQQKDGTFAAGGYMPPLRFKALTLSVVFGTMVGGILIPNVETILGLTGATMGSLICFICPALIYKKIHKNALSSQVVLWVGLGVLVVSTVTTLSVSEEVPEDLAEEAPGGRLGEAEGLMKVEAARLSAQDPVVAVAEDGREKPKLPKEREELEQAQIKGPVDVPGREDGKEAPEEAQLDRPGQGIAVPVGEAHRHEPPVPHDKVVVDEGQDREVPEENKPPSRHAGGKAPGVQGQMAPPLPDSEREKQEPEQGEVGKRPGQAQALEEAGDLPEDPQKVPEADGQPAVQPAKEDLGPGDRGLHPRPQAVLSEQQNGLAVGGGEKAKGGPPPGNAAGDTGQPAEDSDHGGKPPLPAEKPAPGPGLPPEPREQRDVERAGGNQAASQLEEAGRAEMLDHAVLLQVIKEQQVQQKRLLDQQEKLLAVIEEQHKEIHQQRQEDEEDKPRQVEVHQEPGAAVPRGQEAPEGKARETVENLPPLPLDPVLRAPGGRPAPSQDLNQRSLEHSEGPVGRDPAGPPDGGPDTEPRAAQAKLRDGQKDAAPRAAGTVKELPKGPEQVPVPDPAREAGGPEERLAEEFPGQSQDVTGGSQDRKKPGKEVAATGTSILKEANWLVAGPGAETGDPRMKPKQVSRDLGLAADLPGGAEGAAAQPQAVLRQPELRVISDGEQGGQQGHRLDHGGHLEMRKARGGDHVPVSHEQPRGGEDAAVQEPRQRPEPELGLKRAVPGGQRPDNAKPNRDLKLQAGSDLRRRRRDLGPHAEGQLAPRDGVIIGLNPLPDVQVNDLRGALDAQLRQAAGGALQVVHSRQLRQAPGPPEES
UniProt O43808: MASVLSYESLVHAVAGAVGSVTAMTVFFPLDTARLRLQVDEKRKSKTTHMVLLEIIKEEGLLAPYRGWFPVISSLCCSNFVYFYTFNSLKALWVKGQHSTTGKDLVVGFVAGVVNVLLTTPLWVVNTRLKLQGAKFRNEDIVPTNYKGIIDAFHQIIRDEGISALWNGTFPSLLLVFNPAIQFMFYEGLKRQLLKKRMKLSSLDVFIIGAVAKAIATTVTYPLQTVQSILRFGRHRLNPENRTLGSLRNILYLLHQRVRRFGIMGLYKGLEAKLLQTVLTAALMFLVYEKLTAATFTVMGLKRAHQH
UniProt Q8NBI5: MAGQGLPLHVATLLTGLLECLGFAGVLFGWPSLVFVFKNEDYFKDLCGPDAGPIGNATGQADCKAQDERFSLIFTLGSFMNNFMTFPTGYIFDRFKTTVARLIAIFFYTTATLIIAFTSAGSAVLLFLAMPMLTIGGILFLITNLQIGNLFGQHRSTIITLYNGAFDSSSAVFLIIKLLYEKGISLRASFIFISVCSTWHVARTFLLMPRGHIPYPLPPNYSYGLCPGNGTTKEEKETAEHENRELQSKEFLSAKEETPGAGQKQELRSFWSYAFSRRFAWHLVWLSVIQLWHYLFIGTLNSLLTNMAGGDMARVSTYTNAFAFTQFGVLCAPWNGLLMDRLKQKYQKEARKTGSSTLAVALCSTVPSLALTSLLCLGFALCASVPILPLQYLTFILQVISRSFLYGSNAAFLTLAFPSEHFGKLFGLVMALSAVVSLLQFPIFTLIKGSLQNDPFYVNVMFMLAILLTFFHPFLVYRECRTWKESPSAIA
UniProt Q15599: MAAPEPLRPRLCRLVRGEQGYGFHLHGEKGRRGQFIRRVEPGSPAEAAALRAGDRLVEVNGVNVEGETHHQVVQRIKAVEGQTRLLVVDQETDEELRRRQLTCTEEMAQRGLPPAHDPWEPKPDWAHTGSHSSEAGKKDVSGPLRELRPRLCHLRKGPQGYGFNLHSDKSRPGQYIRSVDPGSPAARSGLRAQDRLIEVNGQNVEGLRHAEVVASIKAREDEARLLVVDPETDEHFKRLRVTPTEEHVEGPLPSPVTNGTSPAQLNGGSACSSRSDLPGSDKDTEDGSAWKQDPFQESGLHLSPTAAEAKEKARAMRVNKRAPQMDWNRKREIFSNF
UniProt Q6NXT4: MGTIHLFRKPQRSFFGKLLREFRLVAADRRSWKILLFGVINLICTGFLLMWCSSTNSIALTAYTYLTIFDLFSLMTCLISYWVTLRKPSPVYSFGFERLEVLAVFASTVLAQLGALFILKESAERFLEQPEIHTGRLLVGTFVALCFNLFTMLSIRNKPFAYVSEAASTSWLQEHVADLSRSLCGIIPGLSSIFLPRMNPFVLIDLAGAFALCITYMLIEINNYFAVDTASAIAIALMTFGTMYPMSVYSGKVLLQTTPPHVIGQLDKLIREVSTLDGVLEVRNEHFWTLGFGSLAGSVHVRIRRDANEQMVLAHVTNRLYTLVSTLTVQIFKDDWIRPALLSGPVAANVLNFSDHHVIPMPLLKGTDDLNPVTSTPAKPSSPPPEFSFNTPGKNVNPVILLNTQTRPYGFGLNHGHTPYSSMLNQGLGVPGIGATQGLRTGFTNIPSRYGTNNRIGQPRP
UniProt P05141: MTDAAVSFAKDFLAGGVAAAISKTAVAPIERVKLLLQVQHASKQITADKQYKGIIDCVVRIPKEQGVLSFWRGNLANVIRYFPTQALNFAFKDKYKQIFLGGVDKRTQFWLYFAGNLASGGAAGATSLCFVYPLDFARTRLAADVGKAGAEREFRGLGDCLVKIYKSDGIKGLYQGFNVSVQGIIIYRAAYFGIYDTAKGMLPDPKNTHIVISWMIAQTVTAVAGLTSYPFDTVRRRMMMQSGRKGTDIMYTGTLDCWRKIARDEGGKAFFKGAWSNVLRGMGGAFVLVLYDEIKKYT
UniProt Q96DW6: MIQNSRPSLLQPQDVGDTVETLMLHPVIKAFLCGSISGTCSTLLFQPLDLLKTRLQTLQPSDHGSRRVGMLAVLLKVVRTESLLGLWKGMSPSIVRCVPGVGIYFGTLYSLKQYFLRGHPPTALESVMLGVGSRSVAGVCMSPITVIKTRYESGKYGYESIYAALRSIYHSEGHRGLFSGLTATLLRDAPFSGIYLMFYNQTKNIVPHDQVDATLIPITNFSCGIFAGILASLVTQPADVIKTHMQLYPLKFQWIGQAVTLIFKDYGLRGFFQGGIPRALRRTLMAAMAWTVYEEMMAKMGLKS
UniProt O14745: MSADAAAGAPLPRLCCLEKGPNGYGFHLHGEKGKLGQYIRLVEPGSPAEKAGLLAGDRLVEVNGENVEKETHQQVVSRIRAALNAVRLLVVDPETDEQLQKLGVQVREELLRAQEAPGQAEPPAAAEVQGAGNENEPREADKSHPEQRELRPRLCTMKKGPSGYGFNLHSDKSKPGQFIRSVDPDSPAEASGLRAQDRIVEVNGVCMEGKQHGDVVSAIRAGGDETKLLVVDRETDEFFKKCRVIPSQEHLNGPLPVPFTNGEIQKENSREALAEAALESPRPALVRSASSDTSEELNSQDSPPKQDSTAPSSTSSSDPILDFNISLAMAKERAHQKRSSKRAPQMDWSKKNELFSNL
UniProt Q96H78: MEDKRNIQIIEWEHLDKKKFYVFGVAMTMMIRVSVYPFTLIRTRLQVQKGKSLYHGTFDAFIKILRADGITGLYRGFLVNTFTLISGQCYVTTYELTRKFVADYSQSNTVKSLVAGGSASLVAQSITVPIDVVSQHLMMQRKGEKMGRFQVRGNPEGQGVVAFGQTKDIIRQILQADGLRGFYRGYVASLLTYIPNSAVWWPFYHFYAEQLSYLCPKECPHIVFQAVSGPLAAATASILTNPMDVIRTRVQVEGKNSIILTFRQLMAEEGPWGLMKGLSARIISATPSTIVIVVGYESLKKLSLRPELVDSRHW
UniProt O75387: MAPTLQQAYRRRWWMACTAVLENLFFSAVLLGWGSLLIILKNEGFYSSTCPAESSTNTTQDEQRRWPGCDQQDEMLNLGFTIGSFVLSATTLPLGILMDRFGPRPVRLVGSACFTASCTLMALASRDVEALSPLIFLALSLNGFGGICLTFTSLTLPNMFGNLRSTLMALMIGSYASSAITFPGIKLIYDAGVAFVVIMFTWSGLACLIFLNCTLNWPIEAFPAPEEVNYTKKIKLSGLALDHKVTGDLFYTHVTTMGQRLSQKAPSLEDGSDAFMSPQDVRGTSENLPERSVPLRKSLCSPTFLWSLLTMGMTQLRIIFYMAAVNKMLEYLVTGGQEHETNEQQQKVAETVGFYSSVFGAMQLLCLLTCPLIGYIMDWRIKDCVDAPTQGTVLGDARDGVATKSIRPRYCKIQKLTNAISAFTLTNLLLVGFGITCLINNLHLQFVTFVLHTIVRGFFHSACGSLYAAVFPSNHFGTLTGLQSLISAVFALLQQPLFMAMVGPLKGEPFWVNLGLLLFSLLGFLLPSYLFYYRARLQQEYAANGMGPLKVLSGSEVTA
UniProt Q9H2D1: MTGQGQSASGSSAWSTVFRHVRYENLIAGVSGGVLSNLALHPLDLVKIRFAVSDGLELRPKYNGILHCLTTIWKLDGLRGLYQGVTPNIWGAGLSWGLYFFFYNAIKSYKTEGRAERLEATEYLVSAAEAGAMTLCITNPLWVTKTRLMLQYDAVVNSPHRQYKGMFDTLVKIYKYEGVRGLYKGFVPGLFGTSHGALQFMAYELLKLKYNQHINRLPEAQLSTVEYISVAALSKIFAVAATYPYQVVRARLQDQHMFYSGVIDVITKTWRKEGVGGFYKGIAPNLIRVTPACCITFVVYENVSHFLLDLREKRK
UniProt O95391: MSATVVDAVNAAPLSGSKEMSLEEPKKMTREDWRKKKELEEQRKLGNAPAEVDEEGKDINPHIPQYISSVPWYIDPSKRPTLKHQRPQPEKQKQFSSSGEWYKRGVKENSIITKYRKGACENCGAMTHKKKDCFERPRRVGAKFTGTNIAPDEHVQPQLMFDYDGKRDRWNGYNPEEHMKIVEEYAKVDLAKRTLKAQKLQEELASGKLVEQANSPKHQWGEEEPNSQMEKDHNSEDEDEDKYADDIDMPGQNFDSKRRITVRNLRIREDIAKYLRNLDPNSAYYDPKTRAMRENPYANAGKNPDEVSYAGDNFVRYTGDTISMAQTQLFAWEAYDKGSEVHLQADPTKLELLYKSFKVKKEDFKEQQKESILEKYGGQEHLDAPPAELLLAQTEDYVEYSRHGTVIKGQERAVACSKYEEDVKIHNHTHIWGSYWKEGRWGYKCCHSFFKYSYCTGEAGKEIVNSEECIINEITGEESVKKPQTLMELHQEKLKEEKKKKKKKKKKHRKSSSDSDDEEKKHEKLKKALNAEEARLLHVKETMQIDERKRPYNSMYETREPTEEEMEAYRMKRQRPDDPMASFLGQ
UniProt P12236: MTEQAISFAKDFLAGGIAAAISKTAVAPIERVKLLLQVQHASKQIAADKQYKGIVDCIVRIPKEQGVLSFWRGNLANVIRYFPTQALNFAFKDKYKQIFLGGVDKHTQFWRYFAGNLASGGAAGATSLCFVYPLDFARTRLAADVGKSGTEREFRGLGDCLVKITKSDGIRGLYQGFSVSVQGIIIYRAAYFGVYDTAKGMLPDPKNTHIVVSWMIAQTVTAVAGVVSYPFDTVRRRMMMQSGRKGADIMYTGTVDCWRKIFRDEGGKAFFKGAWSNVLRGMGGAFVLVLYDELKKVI
UniProt Q96A29: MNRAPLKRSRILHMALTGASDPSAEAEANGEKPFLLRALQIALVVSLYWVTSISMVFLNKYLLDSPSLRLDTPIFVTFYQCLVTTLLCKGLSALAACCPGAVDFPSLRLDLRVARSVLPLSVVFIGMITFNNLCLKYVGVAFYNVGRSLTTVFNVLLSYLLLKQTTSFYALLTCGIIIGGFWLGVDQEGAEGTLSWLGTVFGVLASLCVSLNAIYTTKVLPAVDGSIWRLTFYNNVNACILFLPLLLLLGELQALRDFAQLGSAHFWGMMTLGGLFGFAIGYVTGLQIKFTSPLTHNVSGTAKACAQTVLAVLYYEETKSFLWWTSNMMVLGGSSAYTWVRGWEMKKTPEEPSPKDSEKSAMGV
UniProt Q9H1U9: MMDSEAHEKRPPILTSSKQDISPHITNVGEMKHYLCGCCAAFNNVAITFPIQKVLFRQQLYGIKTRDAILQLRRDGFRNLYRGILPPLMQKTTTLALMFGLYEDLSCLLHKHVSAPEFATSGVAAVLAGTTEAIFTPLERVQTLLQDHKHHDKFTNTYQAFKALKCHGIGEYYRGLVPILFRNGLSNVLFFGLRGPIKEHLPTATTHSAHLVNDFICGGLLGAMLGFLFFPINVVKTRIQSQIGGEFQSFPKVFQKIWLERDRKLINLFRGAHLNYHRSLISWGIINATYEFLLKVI

Key:
Experiment in all cases: log2 fold change, soluble protein after heating vs DMSO (PISA); higher = thermal stabilisation; K562 lysate, 10 uM; active = over 0.2 and 3.5 SD of the protein, either way, in both replicates (recomputed)
erlotinib = compound: C#Cc1cccc(Nc2ncnc3cc(OCCOC)c(OCCOC)cc23)c1 [erlotinib]
In short: (§1)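 K562 pellets were dounce-homogenised in PBS pH 7.4 containing 1 mM MgCl2, and the crude extract, at 1 mg/mL protein, was exposed to 10 μM compound for 30 min. Aliquots were heated for 3 min across 48°C-58°C, pooled, brought to 0.5% NP-40 at 4°C and spun at 21,000xg for 90 min, with the supernatant taken as soluble protein. TMTpro 16plex LC-MS/MS with equalised channel sums quantified that protein. Values are log-two fold changes in thermal stability relative to solvent controls, taken from duplicates.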

[1] = compound: C/C(=N\NC(=O)C1=CC(=CC=C1)S(=O)(=O)N2CCOCC2)/C3=C(C=CC(=C3)Cl)O
In short: as §1

[2] = compound: C1=CC(=CC=C1C2=NC3=C(N2)C=C(C=C3)C(=O)N)OC4=CC=C(C=C4)Cl
In short: as §1

[3] = compound: C1=CC2=C(C=CC(=C2)/C=C\3/C(=O)NC(=NCC4=CC=CS4)S3)N=C1
In short: as §1

[4] = compound: C1=CC2=NC=CN=C2C=C1/C=C/3\C(=O)NC(=O)S3
In short: as §1

[5] = compound: C1=CC=C(C=C1)C2=NC(=C(N2)C3=CC=NC=C3)C4=CC(=C(C=C4)Cl)O
In short: as §1

[6] = compound: C1=CC=C2C(=C1)C3=NNC4=CC=CC(=C43)C2=O
In short: as §1

[7] = compound: C1CCN(C1)C(=O)NC2=CC=CC(=C2)NC3=NC=C(C(=N3)NCCC4=CN=CN4)Br
In short: as §1

[8] = compound: C1CN(CCC1(CC2=CC=C(C=C2)Cl)N)C3=NC=NC4=C3C=CN4
In short: as §1

IRAK-1-4 Inhibitor I = compound: C1COCCN1CCN2C3=CC=CC=C3N=C2NC(=O)C4=CC(=CC=C4)[N+](=O)[O-] [IRAK-1-4 Inhibitor I]
In short: as §1

Measured: log2 fold change

SMAD4 (UniProt Q13485)
inactive: erlotinib 0.003 | [1] 0.141 | [2] 0.024 | [3] -0.019 | [4] -0.022 | [5] 0.028 | [6] -0.038 | [7] -0.011 | [8] -0.005 | IRAK-1-4 Inhibitor I 0

SLC38A10 (UniProt Q9HBR0)
inactive: erlotinib 0.007 | [1] -0.128 | [2] -0.006 | [3] -0.065 | [4] -0.009 | [5] 0.02 | [6] -0.127 | [7] 0 | [8] 0.016 | IRAK-1-4 Inhibitor I 0.047

SLC35F2 (UniProt Q8IXU6)
inactive: erlotinib -0.022 | [1] -0.114 | [2] 0.038 | [3] 0.137 | [4] -0.078 | [5] 0.032 | [6] -0.065 | [7] -0.074 | [8] 0.013 | IRAK-1-4 Inhibitor I 0.031

SLC35B2 (UniProt Q8TB61)
inactive: erlotinib 0.009 | [1] 0.015 | [2] -0.025 | [3] -0.018 | [4] -0.032 | [5] -0.024 | [6] -0.035 | [7] -0.02 | [8] 0.02 | IRAK-1-4 Inhibitor I 0.046

SLC38A2 (UniProt Q96QD8)
inactive: erlotinib -0.034 | [1] -0.046 | [2] -0.019 | [3] 0.028 | [4] 0.048 | [5] -0.024 | [6] 0.003 | [7] 0.005 | [8] -0.04 | IRAK-1-4 Inhibitor I -0.005

SLC6A8 (UniProt P48029)
inactive: erlotinib -0.002 | [1] -0.06 | [2] 0.07 | [3] -0.02 | [4] -0.031 | [5] -0.072 | [6] -0.082 | [7] 0.076 | [8] 0.206 | IRAK-1-4 Inhibitor I 0.105

SLC25A17 (UniProt O43808)
inactive: erlotinib 0.035 | [1] 0.057 | [2] 0.061 | [3] 0.014 | [4] -0.015 | [5] 0.012 | [6] -0.021 | [7] 0.012 | [8] 0.03 | IRAK-1-4 Inhibitor I 0.056

SLC35A2 isoform 4 (UniProt P78381)
inactive: erlotinib -0.015 | [1] 0.034 | [2] 0.006 | [3] -0.04 | [4] -0.044 | [5] 0.027 | [6] -0.016 | [7] 0.036 | [8] -0.007 | IRAK-1-4 Inhibitor I 0.08

SLC25A15 (UniProt Q9Y619)
inactive: erlotinib 0.007 | [1] -0.071 | [2] -0.007 | [3] 0.005 | [4] -0.012 | [5] 0.01 | [6] 0.039 | [7] -0.023 | [8] -0.052 | IRAK-1-4 Inhibitor I 0.02

Random excerpt: 2 records from the list, in no set order.
SLC35B2 (UniProt Q8TB61)
inactive: erlotinib 0.009 | [1] 0.015 | [2] -0.025 | [3] -0.018 | [4] -0.032 | [5] -0.024 | [6] -0.035 | [7] -0.02 | [8] 0.02 | IRAK-1-4 Inhibitor I 0.046

SLC38A10 (UniProt Q9HBR0)
inactive: erlotinib 0.007 | [1] -0.128 | [2] -0.006 | [3] -0.065 | [4] -0.009 | [5] 0.02 | [6] -0.127 | [7] 0 | [8] 0.016 | IRAK-1-4 Inhibitor I 0.047

(next part)

SLC43A3 isoform 2 (UniProt Q8NBI5)
inactive: erlotinib 0.015 | [1] -0.014 | [2] 0.003 | [3] 0.057 | [4] 0.012 | [5] 0 | [6] -0.012 | [7] 0.015 | [8] -0.063 | IRAK-1-4 Inhibitor I 0.014

SLC9A3R2 (UniProt Q15599)
inactive: erlotinib 0.024 | [1] -0.134 | [2] 0.021 | [3] 0.022 | [4] -0.024 | [5] 0.001 | [6] -0.032 | [7] -0.034 | [8] 0.006 | IRAK-1-4 Inhibitor I 0.014

SLC30A6 isoform 2 (UniProt Q6NXT4)
inactive: erlotinib -0.014 | [1] 0.031 | [2] -0.012 | [3] -0.08 | [4] 0.069 | [5] 0.008 | [6] -0.212 | [7] -0.005 | [8] -0.059 | IRAK-1-4 Inhibitor I 0

SLC25A5 (UniProt P05141)
inactive: erlotinib 0.005 | [1] 0.034 | [2] 0.062 | [3] -0.021 | [4] 0.039 | [5] 0.003 | [6] 0.013 | [7] 0.008 | [8] -0.014 | IRAK-1-4 Inhibitor I 0.015

SLC25A38 (UniProt Q96DW6)
inactive: erlotinib -0.077 | [1] -0.117 | [2] -0.024 | [3] -0.049 | [4] -0.086 | [5] -0.114 | [6] -0.092 | [7] -0.023 | [8] -0.07 | IRAK-1-4 Inhibitor I -0.052

SLC9A3R1 (UniProt O14745)
inactive: erlotinib 0.004 | [1] 0.001 | [2] -0.002 | [3] -0.02 | [4] -0.013 | [5] -0.014 | [6] 0.013 | [7] 0.005 | [8] -0.001 | IRAK-1-4 Inhibitor I 0.034

SLC25A3 isoform 2 (UniProt Q00325)
inactive: erlotinib 0.019 | [1] -0.033 | [2] 0.024 | [3] -0.018 | [4] -0.01 | [5] -0.006 | [6] -0.02 | [7] 0.004 | [8] -0.008 | IRAK-1-4 Inhibitor I 0.04

SLC38A9 (UniProt Q8NBW4)
inactive: erlotinib -0.006 | [1] -0.13 | [2] 0.035 | [3] 0.009 | [4] 0.1 | [5] -0.028 | [6] -0.148 | [7] -0.041 | [8] -0.01 | IRAK-1-4 Inhibitor I 0.029

SLC25A44 (UniProt Q96H78)
inactive: erlotinib 0.117 | [1] -0.275 | [2] 0.055 | [3] -0.018 | [4] 0.025 | [5] -0.064 | [6] 0.145 | [7] -0.039 | [8] 0.037 | IRAK-1-4 Inhibitor I -0.053

SLC43A1 (UniProt O75387)
inactive: erlotinib 0.017 | [1] -0.001 | [2] -0.033 | [3] 0.023 | [4] -0.115 | [5] 0.035 | [6] -0.01 | [7] -0.038 | [8] -0.003 | IRAK-1-4 Inhibitor I -0.026

SLC6A8 isoform 2 (UniProt P48029)
inactive: erlotinib 0.069 | [1] -0.026 | [2] 0.086 | [3] -0.012 | [4] 0.025 | [5] -0.009 | [6] 0.034 | [7] 0.001 | [8] 0.028 | IRAK-1-4 Inhibitor I 0.083

SLC35F6 (UniProt Q8N357)
inactive: erlotinib 0.029 | [1] -0.129 | [2] 0.068 | [3] 0.094 | [4] 0.022 | [5] -0.02 | [6] -0.105 | [7] 0.078 | [8] -0.045 | IRAK-1-4 Inhibitor I -0.009

SLC25A32 (UniProt Q9H2D1)
inactive: erlotinib 0.035 | [1] 0.02 | [2] -0.062 | [3] 0.011 | [4] -0.013 | [5] -0.027 | [6] 0.056 | [7] 0.018 | [8] -0.002 | IRAK-1-4 Inhibitor I 0.029

SLU7 (UniProt O95391)
inactive: erlotinib -0.02 | [1] -0.086 | [2] -0.021 | [3] 0.09 | [4] -0.026 | [5] 0.021 | [6] 0.036 | [7] -0.096 | [8] -0.041 | IRAK-1-4 Inhibitor I -0.07

SLC25A40 (UniProt Q8TBP6)
inactive: erlotinib 0.031 | [1] 0.021 | [2] -0.001 | [3] 0.035 | [4] -0.026 | [5] 0 | [6] -0.107 | [7] -0.02 | [8] 0.031 | IRAK-1-4 Inhibitor I 0.022

SLC25A6 (UniProt P12236)
inactive: erlotinib 0.006 | [1] 0.014 | [2] 0.012 | [3] -0.003 | [4] -0.009 | [5] 0.003 | [6] 0.067 | [7] 0.005 | [8] -0.021 | IRAK-1-4 Inhibitor I 0.021

SLC35C1 (UniProt Q96A29)
inactive: erlotinib -0.009 | [1] 0.084 | [2] -0.125 | [3] -0.018 | [4] -0.183 | [5] -0.068 | [6] 0.094 | [7] -0.147 | [8] 0.03 | IRAK-1-4 Inhibitor I -0.19

SLC39A11 (UniProt Q8N1S5)
active: [7] 0.385
inactive: erlotinib -0.093 | [1] 0.116 | [2] -0.047 | [3] -0.139 | [4] -0.071 | [5] 0.05 | [6] 0.062 | [8] 0.058 | IRAK-1-4 Inhibitor I -0.053

SLC25A51 (UniProt Q9H1U9)
inactive: erlotinib 0.027 | [1] -0.022 | [2] -0.018 | [3] 0.04 | [4] 0.018 | [5] -0.036 | [6] -0.085 | [7] 0.004 | [8] 0.028 | IRAK-1-4 Inhibitor I -0.019

SLC25A31 (UniProt Q9H0C2)
inactive: erlotinib 0.008 | [1] -0.039 | [2] 0.051 | [3] -0.027 | [4] -0.008 | [5] -0.025 | [6] -0.006 | [7] -0.004 | [8] -0.014 | IRAK-1-4 Inhibitor I 0.051
